Here are results for one molecule from article PMC7822688, “W196 and the β-Hairpin Motif Modulate the Redox Switch of Conformation and the Biomolecular Interaction Network of the Apoptosis-Inducing Factor” (Oxidative Medicine and Cellular Longevity, 2021).

Protein sequences, listed by entry. Tags and fused reporters are not part of them. Lines headed by an entry give the natural chain unless they say otherwise; changes in a name come on top. Chains listed by the source or under a name are the forms on record and can include a tag or linker. Residues count along the entry.
WT human apoptosis-inducing factor hAIF_(Δ1-101) (O95831, residues 102-613): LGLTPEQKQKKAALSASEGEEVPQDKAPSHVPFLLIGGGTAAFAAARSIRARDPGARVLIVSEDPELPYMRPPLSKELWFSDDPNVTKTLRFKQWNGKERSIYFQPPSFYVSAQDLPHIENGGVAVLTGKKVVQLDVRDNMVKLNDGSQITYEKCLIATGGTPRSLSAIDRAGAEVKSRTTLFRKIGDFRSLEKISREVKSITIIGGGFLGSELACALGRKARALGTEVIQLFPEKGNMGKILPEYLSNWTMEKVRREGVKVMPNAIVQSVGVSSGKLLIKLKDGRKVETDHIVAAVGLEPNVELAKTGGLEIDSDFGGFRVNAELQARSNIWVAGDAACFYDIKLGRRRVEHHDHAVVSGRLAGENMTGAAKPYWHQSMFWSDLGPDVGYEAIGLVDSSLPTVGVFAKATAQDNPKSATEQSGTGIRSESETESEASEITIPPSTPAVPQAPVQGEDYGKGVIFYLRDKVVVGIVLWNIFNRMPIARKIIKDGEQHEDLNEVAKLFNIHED
W196Y hAIF_(Δ1-101) (O95831, form named): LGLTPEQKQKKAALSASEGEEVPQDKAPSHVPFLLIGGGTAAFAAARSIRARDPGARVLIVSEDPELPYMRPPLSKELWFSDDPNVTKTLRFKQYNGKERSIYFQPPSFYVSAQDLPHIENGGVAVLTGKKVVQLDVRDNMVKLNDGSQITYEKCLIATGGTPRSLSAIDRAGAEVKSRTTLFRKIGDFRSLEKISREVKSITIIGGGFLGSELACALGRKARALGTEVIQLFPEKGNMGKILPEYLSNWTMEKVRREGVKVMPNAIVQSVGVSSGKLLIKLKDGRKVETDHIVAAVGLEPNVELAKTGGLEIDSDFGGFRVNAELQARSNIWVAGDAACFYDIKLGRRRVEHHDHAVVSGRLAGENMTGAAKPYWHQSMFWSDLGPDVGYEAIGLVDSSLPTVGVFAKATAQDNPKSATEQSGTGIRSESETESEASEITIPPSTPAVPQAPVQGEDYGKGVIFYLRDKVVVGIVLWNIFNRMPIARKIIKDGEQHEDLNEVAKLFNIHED

Results are given in words; binding and its absence hold for the method and conditions named.

In experiment [1] the target is WT human apoptosis-inducing factor hAIF_(Δ1-101) (human) (UniProt O95831). Nature of the experiment: condition: only oxidized state, without NADH; 10-20 μM CHCHD4 titrated into ~10 μM hAIF; ITC; Auto-iTC200, 25°C, 50 mM potassium phosphate, pH 7.4; 10-20 μM protein partner titrated into ~10 μM oxidized hAIF_(∆1-101) variant, without NADH; single-ligand binding site model; both purified.

In a further experiment the target is T1, W196Y hAIF_(Δ1-101) (human, UniProt O95831 102-613, W196Y).
T1 construct: FAD holoprotein; 'ox' oxidized, 'CTC' after reduction with NADH; The His6 tag is called cleavable; whether it was cleaved is told only in the supplementary materials; also called W196Yox; W196Y CTC; source: E. coli C41 (DE3), purified to homogeneity (protocol in the supplementary materials)
The description is as above.

B1: human CHCHD4 (coiled-coil-helix-coiled-coil-helix domain containing 4) (natural protein, UniProt Q8N4Q1 1-142, looked up)
chain: MSYCRQEGKDRIIFVTKEDHETPSSAELVADDPNDPYEEHGLILPNGNINWNCPCLGGMASGPCGEQFKSAFSCFHYSTEEIKGSDCVDQFRAMQECMQKYPDLYPQEDEDEEEEREKKPAEQAEETAPIEATATKEEEGSS
notes: human CHCHD4, UniProtKB Q8N4Q1; synthetic codon-optimised cDNA in pET28a (NdeI-NotI); The His6 tag is called cleavable; whether it was cleaved is told only in the supplementary materials; source: E. coli C41 (DE3), purified (protocol in the supplementary materials)
Consider B1, for which the binding result (in experiment [1]; with W196Y hAIF_(Δ1-101)) was “no binding” each time.
